Part of at least one peptide drawing is inferred or uncertain, most often the ends. Residues, ends and D or L forms follow the SMILES beside them.
What was measured:
Assay type in all cases: cell-based
[1] = system: stomach cancer cell lines (AGS); assay: Boyden chamber assay (cancer cell invasion); settings: 10 μM, 72 hours, relative to OCP9-administered group set as 100%
[2] = system: stomach cancer cell line NUGC3; assay: Cell growth inhibition (sulforhodamine B staining); settings: NUGC3, treated for each concentration
Description: (§1) Specifically, in order to confirm cell growth ability, a stomach cancer cell line NUGC3 and a breast cancer cell line SK-BR-3 were each subcultured in a 96-well plate, and the next day, peptide fragments Con, 7, and CC of Table 2 were treated with 100 μM each to the cell lines. After 72 hours, the cells were immobilized with a 10% trichloroacetic acid solution, and then stained the cell with a 0.4% sulforhodamine B solution for 1 hour, washed with acetic acid, and dried. Thereafter, the dried cells were dissolved in a 10 mM Tris solution and absorbance was measured at 510 nm using an ELISA plate reader.
In order to compare the cancer cell growth inhibitory effects of cancer therapeutic peptides according to cell-penetrating peptides, the stomach cancer cell line NUGC3 was treated with 10 μM each of cancer therapeutic peptide fragments in Table 4, and the cancer cell growth inhibitory effects were screened in the same manner as in Example 1. […]
Specifically, the cancer cell growth inhibitory effect according to partial or entire cyclization of the anticancer peptide fragment was analyzed. […]

[3] = system: stomach cancer cell line NCI-N87; assay: Cell growth inhibition (sulforhodamine B staining); settings: NCI-N87, treated for each concentration
Description: as §1
To analyze the cancer cell growth inhibitory effect according to a length of the anticancer peptide fragment, OCP9-VGLLIS84-7 (SEQ ID NO: 43), OCP9-VGLLIS84-9CC (SEQ ID NO: 46), and OCP9-VGLLIS84-15 (SEQ ID NO: 49) were treated for each concentration to analyze the growth inhibitory effects of stomach cancer cell lines NUGC3 and NCI-N87. When stomach cancer cells were treated with cancer therapeutic peptides, the cancer cell growth inhibitory efficacy was shown in a concentration-dependent manner. In addition, it was confirmed that the growth inhibitory effect on the stomach cancer cell lines increased as the length of the anticancer peptide fragment increased (FIG. 7).

SMILES | invasion of the stomach cancer cell lines [1] | cancer cell growth inhibitory efficacy [2] | cancer cell growth inhibitory efficacy [3]
CC[C@H](C)[C@@H]1NC(=O)[C@H](CCCNC(=N)N)NC(=O)[C@H](Cc2ccccc2)NC(=O)[C@H]([C@@H](C)CC)NC(=O)[C@H]([C@@H](C)CC)NC(=O)[C@H](CO)NC(=O)[C@@H](N)CSSC[C@@H](C(=O)O)NC(=O)[C@H](CCCCN)NC(=O)[C@H]([C@@H](C)O)NC(=O)[C@H](Cc2c[nH]c3ccccc23)NC(=O)[C@@H]2CCCN2C(=O)[C@H](CO)NC(=O)[C@H](CO)NC(=O)[C@H](Cc2ccc(O)cc2)NC(=O)[C@H](CCCNC(=N)N)NC(=O)[C@H](CCCNC(=N)N)NC(=O)[C@H](CCCNC(=N)N)NC(=O)[C@H](CCCNC(=N)N)NC(=O)[C@H](CCCNC(=N)N)NC(=O)[C@H](Cc2ccccc2)NC1=O [OCP9-VGLL1S84-7CC, CSIIFRIFRRRRR-YSSPWTKC] (HELM PEPTIDE1{C.S.I.I.F.R.I.F.R.R.R.R.R.Y.S.S.P.W.T.K.C}$PEPTIDE1,PEPTIDE1,1:R3-21:R3$$$V2.0) | inhibited |  | 
CC[C@H](C)[C@@H]1NC(=O)[C@H](CCCNC(=N)N)NC(=O)[C@H](Cc2ccccc2)NC(=O)[C@H]([C@@H](C)CC)NC(=O)[C@H]([C@@H](C)CC)NC(=O)[C@H](CO)NC(=O)[C@@H](N)CSSC[C@@H](C(=O)O)NC(=O)[C@H](CCCCN)NC(=O)[C@H]([C@@H](C)O)NC(=O)[C@H](Cc2c[nH]c3ccccc23)NC(=O)[C@@H]2CCCN2C(=O)[C@H](CO)NC(=O)[C@H](CO)NC(=O)[C@H](Cc2ccc(O)cc2)NC(=O)[C@H](CCCNC(=N)N)NC(=O)[C@H](Cc2c[nH]c3ccccc23)NC(=O)[C@H](CCCNC(=N)N)NC(=O)[C@H](CCCNC(=N)N)NC(=O)[C@H](CCCNC(=N)N)NC(=O)[C@H](CCCNC(=N)N)NC(=O)[C@H](CCCNC(=N)N)NC(=O)[C@H](Cc2ccccc2)NC1=O [OCP9-VGLL1S84-9CC, CSIIFRIFRRRRR-WRYSSPWTKC] (HELM PEPTIDE1{C.S.I.I.F.R.I.F.R.R.R.R.R.W.R.Y.S.S.P.W.T.K.C}$PEPTIDE1,PEPTIDE1,1:R3-23:R3$$$V2.0) | inhibited | concentration-dependent | concentration-dependent
CC[C@H](C)[C@@H]1NC(=O)[C@H](CCCNC(=N)N)NC(=O)[C@H](Cc2ccccc2)NC(=O)[C@H]([C@@H](C)CC)NC(=O)[C@H]([C@@H](C)CC)NC(=O)[C@H](CO)NC(=O)[C@@H](N)CSSC[C@@H](C(=O)O)NC(=O)[C@H](CCCCN)NC(=O)[C@H]([C@@H](C)O)NC(=O)[C@H](Cc2c[nH]c3ccccc23)NC(=O)[C@@H]2CCCN2C(=O)[C@H](CO)NC(=O)[C@H](CO)NC(=O)[C@H](Cc2ccc(O)cc2)NC(=O)[C@H](CCCNC(=N)N)NC(=O)[C@H](Cc2c[nH]c3ccccc23)NC(=O)[C@H](CCC(N)=O)NC(=O)[C@H](CC(N)=O)NC(=O)[C@H](CCCNC(=N)N)NC(=O)[C@H](CCCNC(=N)N)NC(=O)[C@H](CCCNC(=N)N)NC(=O)[C@H](CCCNC(=N)N)NC(=O)[C@H](CCCNC(=N)N)NC(=O)[C@H](Cc2ccccc2)NC1=O [OCP9-VGLL1S84-11CC, CSIIFRIFRRRRR-NQWRYSSPWTKC] (HELM PEPTIDE1{C.S.I.I.F.R.I.F.R.R.R.R.R.N.Q.W.R.Y.S.S.P.W.T.K.C}$PEPTIDE1,PEPTIDE1,1:R3-25:R3$$$V2.0) | inhibited |  | 

— patent publication US20240336659A1, “CELL-PENETRATING PEPTIDE, ANTI-CANCER PEPTIDE, AND PHARMACEUTICAL COMPOSITION FOR PREVENTING OR TREATING CANCER, COMPRISING SAME” (ONECUREGEN CO., LTD., priority 2021, published 2024)
